Measured values as given in PMC8831594.
Results are given in words; binding and its absence hold for the method and conditions named. In cells and extracts the contact can be indirect.

Molecular target: T1, Lamina-associated polypeptide 2α (Lap2α), endogenous (mouse (endogenous in NIH 3T3)) (UniProt Q61033)
T1 sequence: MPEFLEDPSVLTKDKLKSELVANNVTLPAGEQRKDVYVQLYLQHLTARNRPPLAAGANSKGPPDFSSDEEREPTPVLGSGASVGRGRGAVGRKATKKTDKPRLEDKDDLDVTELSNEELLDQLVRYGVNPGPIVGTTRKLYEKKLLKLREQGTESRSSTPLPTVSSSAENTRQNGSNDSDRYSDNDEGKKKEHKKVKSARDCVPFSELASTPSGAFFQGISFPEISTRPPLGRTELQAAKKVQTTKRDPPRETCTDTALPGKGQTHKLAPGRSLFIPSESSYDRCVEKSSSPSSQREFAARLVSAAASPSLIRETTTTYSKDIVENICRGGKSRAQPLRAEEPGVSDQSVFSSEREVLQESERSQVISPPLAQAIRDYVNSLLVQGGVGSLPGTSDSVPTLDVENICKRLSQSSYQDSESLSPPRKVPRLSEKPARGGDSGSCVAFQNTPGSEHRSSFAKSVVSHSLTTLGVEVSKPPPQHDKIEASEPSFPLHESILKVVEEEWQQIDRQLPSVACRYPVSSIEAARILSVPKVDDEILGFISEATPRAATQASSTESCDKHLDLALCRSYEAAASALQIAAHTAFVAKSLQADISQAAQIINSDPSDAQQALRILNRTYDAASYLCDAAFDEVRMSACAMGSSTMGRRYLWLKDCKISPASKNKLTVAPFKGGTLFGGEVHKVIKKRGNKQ
Assay: co-IP; 'similar co-immunoprecipitation experiments' (Supplementary Fig. S6a); bait and format not given; the methods describe an IP of endogenous proteins from NIH 3T3 lysate with Lap2α antibody or IgG, Dynabeads Protein G, 4 h at 4 °C

binding: no binding
B1: Serum response factor (SRF) (protein, UniProt Q9JM73 1-504)
chain: MLPSQAGAAAALGRGSALGGNLNRTPTGRPGGGGGTRGANGGRVPGNGAGLGQSRLEREAAAAAAPTAGALYSGSEGDSESGEEEELGAERRGLKRSLSEMELGVVVGGPEAAAAAAGGYGPVSGAVSGAKPGKKTRGRVKIKMEFIDNKLRRYTTFSKRKTGIMKKAYELSTLTGTQVLLLVASETGHVYTFATRKLQPMITSETGKALIQTCLNSPDSPPRSDPTTDQRMSATGFEEPDLTYQVSESDSSGETKDTLKPAFTVTNLPGTTSTIQTAPSTSTTMQVSSGPSFPITNYLAPVSASVSPSAVSSANGTVLKSTGSGPVSSGGLMQLPTSFTLMPGGAVAQQVPVQAIHVHQAPQQASPSRDSSTDLTQTSSSGTVTLPATIMTSSVPTTVGGHMMYPSPHAVMYAPTSGLADGSLTVLNAFSQAPSTMQVSHSQVQEPGGVPQVFLTAPSGTVQIPVSAVQLHQMAVIGQQAGSSSNLTELQVVNLDATHSTKSE
